From patent US9702869B2, “Assays, antibodies, immunogens and compositions related to 5-FU” (WELLSTAT DIAGNOSTICS, LLC, priority 2011, dated 2017)

What was measured:
monoclonal antibody 61C6 = experiment: Cross-reactivity evaluation with lyophilized reagents (Bi-mAb-Beads capture, TAG Plus 1-5C-5-FU-BSA detector); format: binding, Balb/c mouse
Experimental: This experiment was performed to test the specificity of the monoclonal antibody 61C6 against 5-FU analogues, pro-drugs and interference reagents. […] In this Example, the components of 5-FU assay (capture, detector) were lyophilized and the sample (calibrator, controls, and spiked plasma samples) were added directly to the lyophilized reagent pellets.
The assay was prepared using the following protocol. […] The capture and the detector solutions were aliquoted (20 μL) and lyophilized.
The assay procedure was as follows. The electrostatic on the surface of the microplate was reduced by using a Zerostat Antistatic Device prior to use. The device was pointed on the surface of the microplate, squeezed and the trigger released a few times across the microplate. 1 lyophilized pellet of each capture and detector reagent was transferred into plate wells using the Vacuum Pick-Up System. A hollow needle tip was attached onto the pick-up pen, and the finger controlled vacuum was used for picking up (the index finger was placed over the hole so that vacuum was drawn through the needle) or releasing pellet (lifting the index finger off of the hole). On a metal plate holder of a Digital Heat Block set at 37±2° C., 50 μL of each calibrator, control, and sample (in this case cross-reactivity panels) were added in duplicate directly into plate wells containing 2 lyophilized pellets. The plate was placed on the Micromix shaker set at Form 8 & Amp 6 for 30 seconds to mix. The plate was then placed in the metal plate holder of a Digital Heat Block set at 37±2° C. The plate was covered with a plate cover and incubated for 5±0.5 minutes.

[1] = 5-FU ECL assay with antibody 61C6, summary of performance; format: binding; settings: 5-FU assay with antibody 61C6
[2] = Without 5-FU, lyophilized reagents, human plasma

CN(Cc1cnc2nc(N)nc(N)c2n1)c1ccc(C(=O)N[C@@H](CCC(=O)O)C(=O)O)cc1 [Methotrexate]
Measured Value (monoclonal antibody 61C6; With 75 ng/mL Spiked 5-FU): 108 ng/mL | Measured Value (monoclonal antibody 61C6; With 1000 ng/mL Spiked 5-FU): 1106 ng/mL | Measured Value (monoclonal antibody 61C6; [2]): 1.1 ng/mL

Cc1c[nH]c(=O)[nH]c1=O [Thymine]
Measured Value (monoclonal antibody 61C6; With 75 ng/mL Spiked 5-FU): 322 ng/mL | Measured Value (monoclonal antibody 61C6; With 1000 ng/mL Spiked 5-FU): 1224 ng/mL | Measured Value (monoclonal antibody 61C6; [2]): 99 ng/mL

CCc1c2c(nc3ccc(OC(=O)N4CCC(N5CCCCC5)CC4)cc13)-c1cc3c(c(=O)n1C2)COC(=O)[C@]3(O)CC [Irinotecan]
Measured Value (monoclonal antibody 61C6; With 75 ng/mL Spiked 5-FU): 139 ng/mL | Measured Value (monoclonal antibody 61C6; With 1000 ng/mL Spiked 5-FU): 1266 ng/mL

O=c1ccn([C@@H]2O[C@H](CO)[C@@H](O)[C@H]2O)c(=O)[nH]1 [Uridine]
Measured Value (monoclonal antibody 61C6; With 75 ng/mL Spiked 5-FU): 234 ng/mL | Measured Value (monoclonal antibody 61C6; With 1000 ng/mL Spiked 5-FU): 1094 ng/mL | Measured Value (monoclonal antibody 61C6; [2]): 48 ng/mL

CCCCCOC(=O)Nc1nc(=O)n([C@@H]2O[C@H](C)[C@@H](O)[C@H]2O)cc1F [Capecitabine]
Measured Value (monoclonal antibody 61C6; With 75 ng/mL Spiked 5-FU): 143 ng/mL | Measured Value (monoclonal antibody 61C6; With 1000 ng/mL Spiked 5-FU): 1058 ng/mL | Measured Value (monoclonal antibody 61C6; [2]): 1.9 ng/mL

O=C1[O][Pt]2([NH][C@@H]3CCCC[C@H]3[NH]2)[O]C1=O [Oxaliplatin]
Measured Value (monoclonal antibody 61C6; With 1000 ng/mL Spiked 5-FU): 971 ng/mL

O=C1NCC(F)C(=O)N1 (stereo not shown) [DH5FU, 5-Fluorodihydropyrimidine-2,4-dione]
Measured Value (monoclonal antibody 61C6; With 1000 ng/mL Spiked 5-FU): 1095 ng/mL

N.N.[Cl][Pt][Cl] [Cisplatin]
Measured Value (monoclonal antibody 61C6; With 1000 ng/mL Spiked 5-FU): 1116 ng/mL

Cc1cn([C@H]2C[C@H](O)[C@@H](CO)O2)c(=O)[nH]c1=O [Thymidine]
Measured Value (monoclonal antibody 61C6; With 75 ng/mL Spiked 5-FU): 178 ng/mL | Measured Value (monoclonal antibody 61C6; With 1000 ng/mL Spiked 5-FU): 1131 ng/mL | Measured Value (monoclonal antibody 61C6; [2]): 17 ng/mL

O=c1[nH]c(=O)n(C2CCCO2)cc1F (stereo not shown) [Tegafur]
Measured Value (monoclonal antibody 61C6; With 75 ng/mL Spiked 5-FU): 5723 ng/mL | Measured Value (monoclonal antibody 61C6; With 1000 ng/mL Spiked 5-FU): 5543 ng/mL | Measured Value (monoclonal antibody 61C6; [2]): 4229 ng/mL

O=c1cc[nH]c(=O)[nH]1 [Uracil]
Measured Value (monoclonal antibody 61C6; With 75 ng/mL Spiked 5-FU): 419 ng/mL | Measured Value (monoclonal antibody 61C6; With 1000 ng/mL Spiked 5-FU): 1258 ng/mL | Measured Value (monoclonal antibody 61C6; [2]): 186 ng/mL

Nc1nc(=O)c2c([nH]1)NCC(CNc1ccc(C(=O)N[C@@H](CCC(=O)O)C(=O)O)cc1)N2C=O (mixture of isomers) [Folinic Acid]
Measured Value (monoclonal antibody 61C6; With 75 ng/mL Spiked 5-FU): 129 ng/mL | Measured Value (monoclonal antibody 61C6; With 1000 ng/mL Spiked 5-FU): 965 ng/mL | Measured Value (monoclonal antibody 61C6; [2]): 0.8 ng/mL

B1: mAb 61C6: monoclonal anti-5-FU antibody, IgG2b κ; heavy chain SEQ ID NO:2, light chain SEQ ID NO:6; from 3-carbon linker immunogen (antibody, listed as Mus musculus)
heavy: MDWLWNLLFLMAAAQSIQAQIQLVQSGPELKKPGETVTISCKASGYTLTNYGMNWVKQAPGKGLKWMGWINTNSGEPTYVEEFKGRFAFSLETSVSTVYLQISDLKHEDTATYFCARWGPHFNAYGWFAYWGQGTLVTVSAAKTTPPSVYPLAPGCGDTTGSSVTLGCLVKGYFPESVTVTWNSGSLSSSVHTFPALLQSGLYTMSSSVTVPSSTWPSQTVTCSVAHPASSTTVDKKLEPSGPISTINPCPPCKECHKCPAPNLEGGPSVFIFPPNIKDVLMISLTPKVTCVVVDVSEDDPDVQISWFVNNVEVHTAQTQTHREDYNSTIRVVSTLPIQHQDWMSGKEFKCKVNNKDLPSPIERTISKIKGLVRAPQVYILPPPAEQLSRKDVSLTCLVVGFNPGDISVEWTSNGHTEENYKDTAPVLDSDGSYFIYSKLNMKTSKWEKTDSFSCNVRHEGLKNYYLKKTISRSPGK
light: MMSSAQFLGLLLLCFQGTRCYIQMTQTASSLSASLGDRVTISCRASQDIWNYLNWYQQKPDGTIKLLIYYKSRLHSGVPSRFSGSGSGIDFSLTISNLEQEDFATYFCQQGHTLPWTFGGGSKLEIKRADAAPTVSIFPPSSEQLTSGGASVVCFLNNFYPKDINVKWKIDGSERQNGVLNSWTDQDSKDSTYSMSSTLTLTKDEYERHNSYTCEATHKTSTSPIVKSFNRNEC
notes: monoclonal anti-5-FU antibody, IgG2b κ; from 3-carbon linker immunogen
LDL [1]: < 5.0 ng/mL | dynamic range [1]: 10-30,000 ng/mL
